Measured values from patent US8906909B2 (Curis, Inc., priority 2009, dated 2014).

Experiments:
Type in all cases: cell-based
[1] = system: H460 cells; test: Cell proliferation assay Method B, H460; settings: Homo sapiens, NCI-H460, NSCLC, 72 hours, read-out: antiproliferative activity IC50, H460
Procedure: (§1) Cancer cell lines were plated at 5,000 to 10,000 per well in 96-well flat bottomed plates with various concentration of compounds. The cells were incubated with compounds for 72 hours in the presence of 0.5% of fetal bovine serum. Growth inhibition was accessed by adenosine triphosphate (ATP) content assay using Promega CellTiter-Glo kit. Promega CellTiter-Glo kit is an ATP monitoring system based on firefly luciferase. Briefly, 16 μl of mammalian cell lysis and substrate solution was added to 84 μl of culture medium per well to lyse the cells and stabilize the ATP. The mixture was shaken and incubated for 30 minutes and subsequently the luminescence was measured.

[2] = system: H1975 cells; test: Cell proliferation assay Method B, H1975; settings: Homo sapiens, NCI-H1975, NSCLC, 72 hours, read-out: antiproliferative activity IC50, H1975
Procedure: as §1

[3] = system: H1993 cells; test: Cell proliferation assay Method B, H1993; settings: Homo sapiens, NCI-H1993, NSCLC, 72 hours, read-out: antiproliferative activity IC50, H1993
Procedure: as §1

[4] = system: MDA-MB-231 cells; test: Cell proliferation assay Method B, MDA-MB-231; settings: Homo sapiens, Breast, 72 hours, read-out: antiproliferative activity IC50, MDA-MB-231 (second listing, r32)
Procedure: as §1

[5] = system: HCC1500 cells; test: Cell proliferation assay Method B, HCC1500; settings: Breast, 72 hours, read-out: antiproliferative activity IC50, HCC1500
Procedure: as §1

[6] = system: HCC1806 cells; test: Cell proliferation assay Method B, HCC1806; settings: Homo sapiens, Breast, 72 hours, read-out: antiproliferative activity IC50, HCC1806
Procedure: as §1

[7] = system: SKBr3 cells; test: Cell proliferation assay Method B, SKBr3; settings: Homo sapiens, SK-BR-3, Breast, 72 hours, read-out: antiproliferative activity IC50, SKBr3
Procedure: as §1

[8] = system: BT474 cells; test: Cell proliferation assay Method B, BT474; settings: Homo sapiens, BT-474, Breast, 72 hours, read-out: antiproliferative activity IC50, BT474
Procedure: as §1

[9] = system: MDA-MB-361 cells; test: Cell proliferation assay Method B, MDA-MB-361; settings: Homo sapiens, Breast, 72 hours, read-out: antiproliferative activity IC50, MDA-MB-361
Procedure: as §1

[10] = system: UACC-893 cells; test: Cell proliferation assay Method B, UACC-893; settings: Homo sapiens, Breast, 72 hours, read-out: antiproliferative activity IC50, UACC-893
Procedure: as §1

[11] = system: MDA-MB-453 cells; test: Cell proliferation assay Method B, MDA-MB-453; settings: Homo sapiens, Breast, 72 hours, read-out: antiproliferative activity IC50, MDA-MB-453
Procedure: as §1

[12] = system: MCF-7 cells; test: Cell proliferation assay Method B, MCF-7; settings: Homo sapiens, MCF7, Breast, 72 hours, read-out: antiproliferative activity IC50, MCF-7
Procedure: as §1

[13] = system: T47D cells; test: Cell proliferation assay Method B, T47D; settings: Homo sapiens, Breast, 72 hours, read-out: antiproliferative activity IC50, T47D
Procedure: as §1

[14] = system: ZR-75-1 cells; test: Cell proliferation assay Method B, ZR-75-1; settings: Homo sapiens, Breast, 72 hours, read-out: antiproliferative activity IC50, ZR-75-1
Procedure: as §1

[15] = system: MDA-MB-468 cells; test: Cell proliferation assay Method B, MDA-MB-468; settings: Homo sapiens, Breast, 72 hours, read-out: antiproliferative activity IC50, MDA-MB-468
Procedure: as §1

[16] = system: HCC1937 cells; test: Cell proliferation assay Method B, HCC1937; settings: Homo sapiens, Breast, 72 hours, read-out: antiproliferative activity IC50, HCC1937
Procedure: as §1

[17] = system: MDA-MB-436 cells; test: Cell proliferation assay Method B, MDA-MB-436; settings: Homo sapiens, Breast, 72 hours, read-out: antiproliferative activity IC50, MDA-MB-436
Procedure: as §1

[18] = system: U87MG cells; test: Cell proliferation assay Method B, U87MG; settings: Homo sapiens, U-87 MG, Glioblastoma, 72 hours, read-out: antiproliferative activity IC50, U87MG
Procedure: as §1

[19] = system: Ca127 cells; test: Cell proliferation assay Method B, Ca127; settings: HNC, 72 hours, read-out: antiproliferative activity IC50, Ca127
Procedure: as §1

[20] = system: Sk-Mel-28 cells; test: Cell proliferation assay Method B, Sk-Mel-28; settings: Homo sapiens, Melanoma, 72 hours, read-out: antiproliferative activity IC50, Sk-Mel-28
Procedure: as §1

[21] = system: A375 cells; test: Cell proliferation assay Method B, A375; settings: Homo sapiens, A-375, Melanoma, 72 hours, read-out: antiproliferative activity IC50, A375
Procedure: as §1

[22] = system: MOLT-4 cells; test: Cell proliferation assay Method B, MOLT-4; settings: Homo sapiens, ALL, 72 hours, read-out: antiproliferative activity IC50, MOLT-4
Procedure: as §1

[23] = system: SUP-B15 cells; test: Cell proliferation assay Method B, SUP-B15; settings: Homo sapiens, ALL, 72 hours, read-out: antiproliferative activity IC50, SUP-B15
Procedure: as §1

[24] = system: HL-60 cells; test: Cell proliferation assay Method B, HL-60; settings: Homo sapiens, AML, 72 hours, read-out: antiproliferative activity IC50, HL-60
Procedure: as §1

[25] = system: U937 cells; test: Cell proliferation assay Method B, U937; settings: Homo sapiens, U-937, AML, 72 hours, read-out: antiproliferative activity IC50, U937
Procedure: as §1

[26] = system: THP-1 cells; test: Cell proliferation assay Method B, THP-1; settings: Homo sapiens, AML, 72 hours, read-out: antiproliferative activity IC50, THP-1
Procedure: as §1

[27] = system: MV-4-11 cells; test: Cell proliferation assay Method B, MV-4-11; settings: Homo sapiens, MV4-11, AML, 72 hours, read-out: antiproliferative activity IC50, MV-4-11
Procedure: as §1

[28] = system: Pfeiffer cells; test: Cell proliferation assay Method B, Pfeiffer; settings: Homo sapiens, NHL, 72 hours, read-out: antiproliferative activity IC50, Pfeiffer
Procedure: as §1

[29] = system: Raji cells; test: Cell proliferation assay Method B, Raji; settings: Homo sapiens, NHL, 72 hours, read-out: antiproliferative activity IC50, Raji
Procedure: as §1

[30] = system: Daudi cells; test: Cell proliferation assay Method B, Daudi; settings: Homo sapiens, NHL, 72 hours, read-out: antiproliferative activity IC50, Daudi
Procedure: as §1

[31] = system: K562 cells; test: Cell proliferation assay Method B, K562; settings: Homo sapiens, CML, 72 hours, read-out: antiproliferative activity IC50, K562
Procedure: as §1

[32] = system: MEG-01 cells; test: Cell proliferation assay Method B, MEG-01; settings: Homo sapiens, CML, 72 hours, read-out: antiproliferative activity IC50, MEG-01
Procedure: as §1

[33] = system: RPMI-8226 cells; test: Cell proliferation assay Method B, RPMI-8226; settings: Homo sapiens, Multiple Myeloma, 72 hours, read-out: antiproliferative activity IC50, RPMI-8226
Procedure: as §1

[34] = system: ARH77 cells; test: Cell proliferation assay Method B, ARH77; settings: Homo sapiens, ARH-77, Multiple Myeloma, 72 hours, read-out: antiproliferative activity IC50, ARH77
Procedure: as §1

[35] = system: L1210 cells; test: Cell proliferation assay Method B, L1210; settings: Mouse LL, 72 hours, read-out: antiproliferative activity IC50, L1210
Procedure: as §1

[36] = system: P388 D1 cells; test: Cell proliferation assay Method B, P388 D1; settings: P388D1, Mouse Lymphoma, 72 hours, read-out: antiproliferative activity IC50, P388 D1
Procedure: as §1

Q: For O=C(CCCCCCC(=O)Nc1ccccc1)NO [SAHA, Suberoylanilide hydroxamic acid, reference compound], which IC50 [1] is on record?
A: Its IC50 is over 10000 nM.

Q: And the IC50 [2]?
A: Its IC50 is 1000 to 10000 nM.

Q: What about the IC50 [3] of the same compound?
A: Its IC50 is 1000 to 10000 nM.

Q: And the IC50 [4]?
A: The IC50 was 1000 to 10000 nM.

Q: And the IC50 [5]?
A: The IC50 was 1000 to 10000 nM.

Q: And the IC50 [6]?
A: Its IC50 is 1000 to 10000 nM.

Q: What about the IC50 [7] of the same compound?
A: Its IC50 is 1000 to 10000 nM.

Q: And the IC50 [8]?
A: The IC50 was 1000 to 10000 nM.

Q: And the IC50 [9]?
A: Its IC50 is 1000 to 10000 nM.

Q: What about the IC50 [10] of the same compound?
A: The IC50 was 1000 to 10000 nM.

Q: What about the IC50 [11] of the same compound?
A: Its IC50 is 100 to 1000 nM.

Q: What about the IC50 [12] of the same compound?
A: The IC50 was 1000 to 10000 nM.

Q: What about the IC50 [13] of the same compound?
A: The IC50 was 1000 to 10000 nM.

Q: And the IC50 [14]?
A: Its IC50 is 1000 to 10000 nM.

Q: What about the IC50 [15] of the same compound?
A: Its IC50 is 100 to 1000 nM.

Q: What about the IC50 [16] of the same compound?
A: The IC50 was 1000 to 10000 nM.

Q: And the IC50 [17]?
A: Its IC50 is 1000 to 10000 nM.

Q: And the IC50 [18]?
A: The IC50 was 1000 to 10000 nM.

Q: And the IC50 [19]?
A: The IC50 was 1000 to 10000 nM.

Q: And the IC50 [20]?
A: Its IC50 is 1000 to 10000 nM.

Q: And the IC50 [21]?
A: The IC50 was 1000 to 10000 nM.

Q: And the IC50 [22]?
A: The IC50 was 100 to 1000 nM.

Q: And the IC50 [23]?
A: The IC50 was 100 to 1000 nM.

Q: And the IC50 [24]?
A: The IC50 was 100 to 1000 nM.

Q: And the IC50 [25]?
A: Its IC50 is 100 to 1000 nM.

Q: And the IC50 [26]?
A: The IC50 was over 10000 nM.

Q: And the IC50 [27]?
A: The IC50 was 100 to 1000 nM.

Q: What about the IC50 [28] of the same compound?
A: The IC50 was over 10000 nM.

Q: And the IC50 [29]?
A: Its IC50 is 100 to 1000 nM.

Q: And the IC50 [30]?
A: The IC50 was over 10000 nM.

Q: And the IC50 [31]?
A: The IC50 was over 10000 nM.

Q: What about the IC50 [32] of the same compound?
A: Its IC50 is over 10000 nM.

Q: What about the IC50 [33] of the same compound?
A: Its IC50 is 100 to 1000 nM.

Q: And the IC50 [34]?
A: The IC50 was 1000 to 10000 nM.

Q: What about the IC50 [35] of the same compound?
A: Its IC50 is over 10000 nM.

Q: And the IC50 [36]?
A: The IC50 was over 10000 nM.
